No constants are given. Whether binding was seen depends on the method and setting. Binding seen in cells or lysates may run through a third protein. Binding can be weak; no strength is given.
B1: IMPORTIN-α5-3xHA-StrepII (protein, UniProt Q9FJ09 1-519)
chain: MSLRPSTKTEIRRIRYKVSVDAEEGRRRREDFLVEIRKSKRNENLMKKRRVKVLPPDYKLISNDPFESLLEIANMITGVFSDDPSLQLEYTTRFRVVLSFDRSPPTDNVIKSGVVPRFVEFLKKDDNPKLQFEAAWALTNIASGASEHTKVVIDHGVVPLFVQLLASPDDDVREQAIWGLGNVAGDSIQCRDFVLNSGAFIPLLHQLNNHATLSILRNATWTLSNFFRGKPSPPFDLVKHVLPVLKRLVYSDDEQVLIDACWALSNLSDASNENIQSVIEAGVVPRLVELLQHASPVVLVPALRCIGNIVSGNSQQTHCVINCGVLPVLADLLTQNHMRGIRREACWTISNITAGLEEQIQSVIDANLIPSLVNLAQHAEFDIKKEAIWAISNASVGGSPNQIKYLVEQNCIKALCDILVCPDLRIILVSLGGLEMILIAGEVDKNLRDVNCYSQMIEDAEGLEKIENLQHHGNNEIYEKAVKILQTYGLVEEDGRLVEEEDEGGDGCSHPEFQFDFSR
B2: IMPORTIN-α6-3xHA-StrepII (protein, UniProt Q9FWY7 1-538)
chain: MSYKPSAKTEVRRNRYKVSVDADEGRRRREDNMVEIRKNKREENLQKKRREGFNPSMASQPGQDFSSSLPTETRLENIQQMIAGVMSEDRDLQLEATASFRRLLSIERNPPINEVVQSGVVPHIVQFLSRDDFTQLQFEAAWALTNIASGTSENTRVIIDSGAVPLFVKLLSSASEEVREQAVWALGNVAGDSPKCRDHVLSCEAMMSLLAQFHEHSKLSMLRNATWTLSNFCRGKPQPAFEQTKAALPALERLLHSTDEEVLTDASWALSYLSDGTNEKIQTVIDAGVIPRLVQLLAHPSPSVLIPALRTIGNIVTGDDIQTQAVISSQALPGLLNLLKNTYKKSIKKEACWTISNITAGNTSQIQEVFQAGIIRPLINLLEIGEFEIKKEAVWAISNATSGGNHDQIKFLVSQGCIRPLCDLLPCPDPRVVTVTLEGLENILKVGEAEKNLGNTGNDNLYAQMIEDADGLDKIENLQSHDNNEIYEKAVKILESYWAADDEEEDIGGVDAPENVQSSGFQFGNQSGNAPTGGFNFG
B3: IMPORTIN-α7-3xHA-StrepII (protein, UniProt Q9M9X7 1-528)
chain: MKGGETMSVRRSGYKAVVDGVGGRRRREDDMVEIRKAKREESLLKKRREALPHSPSADSLDQKLISCIWSDERDLLIEATTQIRTLLCGEMFNVRVEEVIQAGLVPRFVEFLTWDDSPQLQFEAAWALTNIASGTSENTEVVIDHGAVAILVRLLNSPYDVVREQVVWALGNISGDSPRCRDIVLGHAALPSLLLQLNHGAKLSMLVNAAWTLSNLCRGKPQPPFDQVSAALPALAQLIRLDDKELLAYTCWALVYLSDGSNEKIQAVIEANVCARLIGLSIHRSPSVITPALRTIGNIVTGNDSQTQHIIDLQALPCLVNLLRGSYNKTIRKEACWTVSNITAGCQSQIQAVFDADICPALVNLLQNSEGDVKKEAAWAICNAIAGGSYKQIMFLVKQECIKPLCDLLTCSDTQLVMVCLEALKKILKVGEVFSSRHAEGIYQCPQTNVNPHAQLIEEAEGLEKIEGLQSHENNDIYETAVKILETYWMEEEEEEDQEQQDMIYFPVDNFANMPTSSGTLSEMHCGP
B4: IMPORTIN-α8-3xHA-StrepII (protein, UniProt Q9FJ92 1-441)
chain: MAWKTEVNEVSDDIIDGLWSDDPPLQLESVTKIRRITSQRDISCVIRSGVVPRLVQLLKNQVFPKLQYEVAWALTNIAVDNPGVVVNNNAVPVLIQLIASPKDYVREQAIWTLSNVAGHSIHYRDFVLNSGVLMPLLRLLYKDTTLRIATWALRNLCRGKPHPAFDQVKPALPALEILLHSHDEDVLKNACMALCHLSEGSEDGIQSVIEAGFVPKLVQILQLPSPVVLVPALLTIGAMTAGNHQQTQCVINSGALPIISNMLTRNHENKIKKCACWVISNITAGTKEQIQSVIDANLIPILVNLAQDTDFYMKKEAVWAISNMALNGSHDQIKYMAEQSCIKQLCDILVYSDERTTILKCLDGLENMLKAGEAEKNSEDVNPYCLLIEDAEGLEKISKLQMNKNDDIYEKAYKILVTNWFEEDDENNNNNVRCDDVDFQV
B5: IMPORTIN-α9-3xHA-StrepII (protein, UniProt F4KF65 1-519)
chain: MADDGSASNRRDPIKSSVGNVAGQRRRKQAVTVAKERRELLVRAKRLCRVGTNGDVEDALVENEMMVDEEQPILEAQASKSVEELKSAVQYQGKGAMQKRVTALRELRRLLSKSEFPPVEAALRAGAIPLLVQCLSFGSPDEQLLESAWCLTNIAAGKPEETKALLPALPLLIAHLGEKSSAPVAEQCAWAIGNVAGEGEDLRNVLLSQGALPPLARMIFPDKGSTVRTAAWALSNLIKGPESKAAAQLVKIDGILDAILRHLKKTDEETATEIAWIIVYLSALSDIATSMLLKGGILQLLIDRLATSSSLQLLIPVLRSLGNFVAVDPKAVLTILIREQNTEESIIGVLAKCLRSEHRVLKKEAAWVLSNIAAGSIEHKRMIHSTEVMPLLLRILSTSPFDIRKEVAYVLGNLCVESAEGDRKPRIIQEHLVSIVSGGCLRGFIELVRSPDIEAARLGLQFIELVLRGMPNGEGPKLVEGEDGIDAMERFQFHENEELRVMANSLVDKYFGEDYGIDE

Molecular target: SNC1^E552K-mYFP (auto-active SNC1) (Arabidopsis thaliana)
Assay: co-IP

Binder	binding
B1	binds weakly
B2	binds weakly
B3	binds weakly
B4	binds weakly
B5	binds weakly

Reference: paper doi:10.1101/2020.05.09.084020
